Reference: US9561289B2, “Peptides for inhibiting tumor growth” (OSPEDALE SAN RAFFAELE SRL, priority 2012, dated 2017)
Some entries share one result that the patent states for a list of compounds.

System: WEHI-164 fibrosarcoma
Experiment: Tumor growth in WEHI-164 fibrosarcoma-bearing mice
Type: in vivo
Conditions: WEHI-164 model

## CC(C)[C@H]1C(=O)N[C@@H](CCCNC(=N)N)C(=O)NCC(=O)N[C@@H](CC(=O)O)C(=O)N[C@H](Cc2ccccc2)C(=O)N1C [Cilengitide, cyclo(arginylglycyl-aspartyl-D-phenylalanyl-N-methyl-valyl)]
  duration of the effect on tumor growth: 5 to 6 days
